Values from PubChem BioAssay AID1259405 (NCATS, 2018)
Here is one part, drawn at random, of about 50,000 reagents. About 4,000 of them (8%) count as active. 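Mouse siRNA library applied to hamster cells; one well for each siRNA.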 Reagents against one gene are numbered here.

Purpose: 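Knock-downs that lift recombinant protein yield in hamster ovary cells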 (primary screen)
Cells: Chinese hamster CHO-K1 ovary cells with stable secreted eGFP expression
Knock-down reagent: single siRNA against mouse genes, 0.8 pmol siRNA per well (2 µl of 400 nM stock)
Time to read-out: 3 days
Read-out: 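Percent of the per-plate non-targeting control median for intracellular GFP per well by laser scanning cytometry and for cell viability by ATP luminescence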
Direction: GFP, % of control: higher = more GFP per well, higher productivity; viability (ATP), % of control: higher = more viable cells (more ATP)
Rule for the call: 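Called active when intracellular GFP, relative to negative control, is at or above 120%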

no.	Target gene	siRNA no.	GFP, % of control	viability (ATP), % of control	outcome
1	Trem2 (triggering receptor expressed on myeloid cells 2)	1	69.1	69.4	inactive
2	Trem2 (triggering receptor expressed on myeloid cells 2)	2	58.8	52.9	inactive
3	Trem2 (triggering receptor expressed on myeloid cells 2)	3	70.9	62.5	inactive
4	Pkhd1 (polycystic kidney and hepatic disease 1)	1	63	65.9	inactive
5	Pkhd1 (polycystic kidney and hepatic disease 1)	2	91.9	86.5	inactive
6	Pkhd1 (polycystic kidney and hepatic disease 1)	3	86.8	69.2	inactive
7	Or6c209 (olfactory receptor family 6 subfamily C member 209)	1	66.5	67.8	inactive
8	Or6c209 (olfactory receptor family 6 subfamily C member 209)	2	51	79.6	inactive
9	Or6c209 (olfactory receptor family 6 subfamily C member 209)	3	84	78.3	inactive
10	Apba3 (amyloid beta precursor protein binding family A member 3)	1	90.5	96.8	inactive
11	Apba3 (amyloid beta precursor protein binding family A member 3)	2	63.6	76.4	inactive
12	Pdha1 (pyruvate dehydrogenase E1 alpha 1)	1	62.1	91.3	inactive
13	Pdha1 (pyruvate dehydrogenase E1 alpha 1)	2	52.5	91	inactive
14	Pdha1 (pyruvate dehydrogenase E1 alpha 1)	3	96.9	121	inactive
15	Ccl7 (C-C motif chemokine ligand 7)	1	63.4	87.2	inactive
16	Ccl7 (C-C motif chemokine ligand 7)	2	42.5	59.2	inactive
17	Impact (impact, RWD domain protein)	1	67.8	80.1	inactive
18	Impact (impact, RWD domain protein)	2	99.8	58.2	inactive
19	Impact (impact, RWD domain protein)	3	85.1	85	inactive
20	Zfp715 (zinc finger protein 715)	1	77.6	50	inactive
21	Zfp715 (zinc finger protein 715)	2	125	95.4	active
22	Nif3l1 (Ngg1 interacting factor 3-like 1 (S. pombe))	1	51.7	57.4	inactive
23	Nif3l1 (Ngg1 interacting factor 3-like 1 (S. pombe))	2	65.2	57.3	inactive
24	Nif3l1 (Ngg1 interacting factor 3-like 1 (S. pombe))	3	96.3	83.9	inactive
25	Shisal2b (shisa like 2B)	1	107	69	inactive
26	Shisal2b (shisa like 2B)	2	107	48.8	inactive
27	Shisal2b (shisa like 2B)	3	62.6	68.3	inactive
28	Heatr5b (HEAT repeat containing 5B)	1	80.7	72.3	inactive
29	Heatr5b (HEAT repeat containing 5B)	2	40.4	51.4	inactive
30	Heatr5b (HEAT repeat containing 5B)	3	68.9	84.9	inactive
31	C2 (complement C2)	1	125	126	active
32	C2 (complement C2)	2	72.8	81.1	inactive
33	Tnfaip8l2 (tumor necrosis factor, alpha-induced protein 8-like 2)	1	85.5	96.7	inactive
34	Tnfaip8l2 (tumor necrosis factor, alpha-induced protein 8-like 2)	2	78.4	83.1	inactive
35	Tnfaip8l2 (tumor necrosis factor, alpha-induced protein 8-like 2)	3	46	64.3	inactive
36	Or9g19 (olfactory receptor family 9 subfamily G member 19)	1	58.9	65.2	inactive
37	Or9g19 (olfactory receptor family 9 subfamily G member 19)	2	99.4	82.2	inactive
38	Or9g19 (olfactory receptor family 9 subfamily G member 19)	3	78.2	53.4	inactive
39	Cln3 (CLN3 lysosomal/endosomal transmembrane protein, battenin)	1	73.3	95.9	inactive
40	Cln3 (CLN3 lysosomal/endosomal transmembrane protein, battenin)	2	65.8	86.8	inactive
41	Ktn1 (kinectin 1)	1	55.6	64.9	inactive
42	Ktn1 (kinectin 1)	2	98.6	59.9	inactive
43	Ktn1 (kinectin 1)	3	24.4	28.7	inactive
44	Prrx2 (paired related homeobox 2)	1	111	104	inactive
45	Prrx2 (paired related homeobox 2)	2	99.3	76.4	inactive
46	Tmem50b (transmembrane protein 50B)	1	64.5	62.4	inactive
47	Tmem50b (transmembrane protein 50B)	2	71.6	64.6	inactive
48	Tmem50b (transmembrane protein 50B)	3	62.6	78.2	inactive
49	Them6 (thioesterase superfamily member 6)	1	47.9	52.5	inactive
50	Them6 (thioesterase superfamily member 6)	2	29.7	43	inactive
51	Them6 (thioesterase superfamily member 6)	3	44.7	49.4	inactive
52	Ehhadh	1	80.8	78.1	inactive
53	Ehhadh	2	64.3	68.1	inactive
54	Ehhadh	3	104	64.3	inactive
55	Ttc9c (tetratricopeptide repeat domain 9C)	1	107	100	inactive
56	Ttc9c (tetratricopeptide repeat domain 9C)	2	85.1	86.5	inactive
57	Ttc9c (tetratricopeptide repeat domain 9C)	3	32.3	37.2	inactive
58	Arhgef15 (Rho guanine nucleotide exchange factor 15)	1	76.8	33	inactive
59	Arhgef15 (Rho guanine nucleotide exchange factor 15)	2	75.4	83.3	inactive
60	Arhgef15 (Rho guanine nucleotide exchange factor 15)	3	44.5	65.3	inactive
61	1700012B09Rik (RIKEN cDNA 1700012B09 gene)	1	65.7	73.4	inactive
62	1700012B09Rik (RIKEN cDNA 1700012B09 gene)	2	87.7	77.4	inactive
63	1700012B09Rik (RIKEN cDNA 1700012B09 gene)	3	109	92.5	inactive
64	Zfp3 (zinc finger protein 3)	1	59.5	91.8	inactive
65	Zfp3 (zinc finger protein 3)	2	78.6	85.8	inactive
66	Gpbp1 (GC-rich promoter binding protein 1)	1	76.8	81.9	inactive
67	Gpbp1 (GC-rich promoter binding protein 1)	2	36.7	51.8	inactive
68	Gpbp1 (GC-rich promoter binding protein 1)	3	117	65.8	inactive
69	Ptgr2 (prostaglandin reductase 2)	1	89.6	81.8	inactive
70	Ptgr2 (prostaglandin reductase 2)	2	87.6	74.3	inactive
71	Ptgr2 (prostaglandin reductase 2)	3	82.4	78.5	inactive
72	B4galnt4 (beta-1,4-N-acetyl-galactosaminyl transferase 4)	1	56.9	48.8	inactive
73	B4galnt4 (beta-1,4-N-acetyl-galactosaminyl transferase 4)	2	82.8	83.5	inactive
74	B4galnt4 (beta-1,4-N-acetyl-galactosaminyl transferase 4)	3	64.2	40.4	inactive
75	Nagpa	1	47.5	37.1	inactive
76	Nagpa	2	64.8	79.9	inactive
77	Nagpa	3	56.6	73.3	inactive
78	Scn1b (sodium channel, voltage-gated, type I, beta)	1	112	92.3	inactive
79	Scn1b (sodium channel, voltage-gated, type I, beta)	2	76.7	63.2	inactive
80	Scn1b (sodium channel, voltage-gated, type I, beta)	3	109	88	inactive
81	Plin4 (perilipin 4)	1	194	179	active
82	Plin4 (perilipin 4)	2	59.7	74.1	inactive
83	Plin4 (perilipin 4)	3	50.9	71.5	inactive
84	Otub2 (OTU domain, ubiquitin aldehyde binding 2)	1	72.6	58.5	inactive
85	Otub2 (OTU domain, ubiquitin aldehyde binding 2)	2	126	66.8	active
86	Otub2 (OTU domain, ubiquitin aldehyde binding 2)	3	87.5	100	inactive
87	Bend5 (BEN domain containing 5)	1	102	85.3	inactive
88	Bend5 (BEN domain containing 5)	2	54.5	29.8	inactive
89	Bend5 (BEN domain containing 5)	3	88.3	83.6	inactive
90	Dnajb11 (DnaJ heat shock protein family (Hsp40) member B11)	1	44.5	54.6	inactive
91	Dnajb11 (DnaJ heat shock protein family (Hsp40) member B11)	2	85	69.1	inactive
92	Dnajb11 (DnaJ heat shock protein family (Hsp40) member B11)	3	62.7	107	inactive
93	Vmn1r4 (vomeronasal 1 receptor 4)	1	37.9	32.4	inactive
94	Vmn1r4 (vomeronasal 1 receptor 4)	2	64.6	74.6	inactive
95	Vmn1r4 (vomeronasal 1 receptor 4)	3	89.7	110	inactive
96	Ttll1 (tubulin tyrosine ligase-like 1)	1	103	67.8	inactive
97	Ttll1 (tubulin tyrosine ligase-like 1)	2	61.6	81.9	inactive
98	Ttll1 (tubulin tyrosine ligase-like 1)	3	65.5	54.8	inactive
99	Or4k47 (olfactory receptor family 4 subfamily K member 47)	1	119	95	inactive
100	Or4k47 (olfactory receptor family 4 subfamily K member 47)	2	74.2	84.9	inactive
101	Or4k47 (olfactory receptor family 4 subfamily K member 47)	3	77.8	85.5	inactive
102	Trp53inp1	1	97.6	92.4	inactive
103	Trp53inp1	2	109	96.3	inactive
104	Trp53inp1	3	140	102	active
105	Krt20 (keratin 20)	1	33.7	56.6	inactive
106	Krt20 (keratin 20)	2	78.5	67.1	inactive
107	Krt20 (keratin 20)	3	117	76.4	inactive

Limited to “GFP, % of control”, for 7 of the entries above:
Trem2 (triggering receptor expressed on myeloid cells 2) #1	69.1
Trem2 (triggering receptor expressed on myeloid cells 2) #2	58.8
Trem2 (triggering receptor expressed on myeloid cells 2) #3	70.9
Pkhd1 (polycystic kidney and hepatic disease 1) #1	63
Pkhd1 (polycystic kidney and hepatic disease 1) #2	91.9
Pkhd1 (polycystic kidney and hepatic disease 1) #3	86.8
Or6c209 (olfactory receptor family 6 subfamily C member 209) #1	66.5
